Data reported in the supplement of paper PMC10849652.
Some of the results follow.

By UniProt entry, the sequences of proteins in these tests, tags left out. Where a name states a change or a piece, a line headed by the entry shows the natural chain unless it says otherwise.
UniProt Q9NS00: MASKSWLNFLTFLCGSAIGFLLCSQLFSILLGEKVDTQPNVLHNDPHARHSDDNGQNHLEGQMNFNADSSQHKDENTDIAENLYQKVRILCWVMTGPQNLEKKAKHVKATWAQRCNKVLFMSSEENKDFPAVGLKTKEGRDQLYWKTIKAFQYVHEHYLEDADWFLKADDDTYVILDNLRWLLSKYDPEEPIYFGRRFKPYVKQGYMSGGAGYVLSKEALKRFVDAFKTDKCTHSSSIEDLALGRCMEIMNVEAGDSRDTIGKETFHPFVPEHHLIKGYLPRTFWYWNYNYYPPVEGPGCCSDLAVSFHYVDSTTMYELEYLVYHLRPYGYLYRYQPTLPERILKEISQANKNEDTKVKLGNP
UniProt Q9BRD0: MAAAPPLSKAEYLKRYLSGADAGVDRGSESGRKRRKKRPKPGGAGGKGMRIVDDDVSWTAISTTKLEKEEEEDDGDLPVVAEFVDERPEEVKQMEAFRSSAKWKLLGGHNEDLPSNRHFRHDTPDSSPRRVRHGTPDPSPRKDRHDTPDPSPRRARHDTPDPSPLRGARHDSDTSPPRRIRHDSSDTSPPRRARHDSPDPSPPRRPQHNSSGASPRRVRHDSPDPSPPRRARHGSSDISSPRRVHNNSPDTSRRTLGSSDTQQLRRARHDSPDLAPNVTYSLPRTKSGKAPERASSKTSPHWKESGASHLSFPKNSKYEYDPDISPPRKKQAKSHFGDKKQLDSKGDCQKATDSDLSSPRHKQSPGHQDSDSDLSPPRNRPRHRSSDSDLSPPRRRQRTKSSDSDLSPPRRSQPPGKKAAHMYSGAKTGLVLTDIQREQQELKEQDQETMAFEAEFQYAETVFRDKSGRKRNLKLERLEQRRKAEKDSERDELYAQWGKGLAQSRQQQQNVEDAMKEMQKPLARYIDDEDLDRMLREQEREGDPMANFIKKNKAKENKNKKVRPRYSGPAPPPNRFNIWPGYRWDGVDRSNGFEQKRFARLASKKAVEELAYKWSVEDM
UniProt Q8N999, whole entry, looked up: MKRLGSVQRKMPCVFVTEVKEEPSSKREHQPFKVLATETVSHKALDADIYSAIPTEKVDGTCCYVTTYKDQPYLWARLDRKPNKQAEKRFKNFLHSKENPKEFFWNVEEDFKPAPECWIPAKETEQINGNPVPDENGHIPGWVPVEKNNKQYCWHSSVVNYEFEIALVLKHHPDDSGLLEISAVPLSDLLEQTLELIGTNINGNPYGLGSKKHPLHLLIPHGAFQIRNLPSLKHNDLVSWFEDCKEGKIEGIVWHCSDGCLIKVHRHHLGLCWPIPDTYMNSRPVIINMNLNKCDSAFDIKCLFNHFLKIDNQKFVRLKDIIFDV
UniProt P27797, whole entry, looked up: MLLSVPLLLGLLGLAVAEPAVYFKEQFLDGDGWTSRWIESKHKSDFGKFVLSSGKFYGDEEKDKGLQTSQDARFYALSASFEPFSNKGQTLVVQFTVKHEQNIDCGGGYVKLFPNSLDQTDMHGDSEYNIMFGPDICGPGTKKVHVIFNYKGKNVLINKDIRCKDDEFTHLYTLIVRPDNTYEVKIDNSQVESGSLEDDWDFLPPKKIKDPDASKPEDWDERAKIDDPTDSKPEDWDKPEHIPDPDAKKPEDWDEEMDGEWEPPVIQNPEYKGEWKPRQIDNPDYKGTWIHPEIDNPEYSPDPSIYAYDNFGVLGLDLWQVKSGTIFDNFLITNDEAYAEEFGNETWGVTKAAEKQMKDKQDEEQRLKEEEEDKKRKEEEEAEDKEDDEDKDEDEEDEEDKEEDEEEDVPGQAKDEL
UniProt Q9Y376: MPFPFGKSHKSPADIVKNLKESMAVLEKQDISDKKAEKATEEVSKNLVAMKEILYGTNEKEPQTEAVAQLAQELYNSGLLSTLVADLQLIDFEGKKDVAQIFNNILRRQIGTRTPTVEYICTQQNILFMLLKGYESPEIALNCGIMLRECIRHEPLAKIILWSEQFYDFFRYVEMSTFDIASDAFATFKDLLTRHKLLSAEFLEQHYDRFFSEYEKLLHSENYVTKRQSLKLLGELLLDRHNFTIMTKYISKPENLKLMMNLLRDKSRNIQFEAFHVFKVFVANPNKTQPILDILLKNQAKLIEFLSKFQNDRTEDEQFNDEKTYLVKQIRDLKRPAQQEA
UniProt Q9BVC5: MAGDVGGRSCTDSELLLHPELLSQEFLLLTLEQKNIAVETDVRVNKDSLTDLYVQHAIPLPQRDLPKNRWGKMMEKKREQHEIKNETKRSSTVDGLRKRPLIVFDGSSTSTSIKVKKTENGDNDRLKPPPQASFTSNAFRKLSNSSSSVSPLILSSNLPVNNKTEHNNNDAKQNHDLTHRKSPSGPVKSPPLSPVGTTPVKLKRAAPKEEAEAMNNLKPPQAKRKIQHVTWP
UniProt Q8IXQ3: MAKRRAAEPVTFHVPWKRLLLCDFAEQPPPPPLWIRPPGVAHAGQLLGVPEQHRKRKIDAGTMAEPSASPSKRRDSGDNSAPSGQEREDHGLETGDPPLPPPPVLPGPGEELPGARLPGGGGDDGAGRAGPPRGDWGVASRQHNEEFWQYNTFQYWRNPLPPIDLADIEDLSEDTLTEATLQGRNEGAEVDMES
UniProt Q9Y2V2: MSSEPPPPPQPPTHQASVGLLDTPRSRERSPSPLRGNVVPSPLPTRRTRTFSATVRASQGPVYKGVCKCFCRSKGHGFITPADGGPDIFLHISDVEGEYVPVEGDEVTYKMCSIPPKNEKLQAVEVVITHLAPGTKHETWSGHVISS
UniProt Q06187: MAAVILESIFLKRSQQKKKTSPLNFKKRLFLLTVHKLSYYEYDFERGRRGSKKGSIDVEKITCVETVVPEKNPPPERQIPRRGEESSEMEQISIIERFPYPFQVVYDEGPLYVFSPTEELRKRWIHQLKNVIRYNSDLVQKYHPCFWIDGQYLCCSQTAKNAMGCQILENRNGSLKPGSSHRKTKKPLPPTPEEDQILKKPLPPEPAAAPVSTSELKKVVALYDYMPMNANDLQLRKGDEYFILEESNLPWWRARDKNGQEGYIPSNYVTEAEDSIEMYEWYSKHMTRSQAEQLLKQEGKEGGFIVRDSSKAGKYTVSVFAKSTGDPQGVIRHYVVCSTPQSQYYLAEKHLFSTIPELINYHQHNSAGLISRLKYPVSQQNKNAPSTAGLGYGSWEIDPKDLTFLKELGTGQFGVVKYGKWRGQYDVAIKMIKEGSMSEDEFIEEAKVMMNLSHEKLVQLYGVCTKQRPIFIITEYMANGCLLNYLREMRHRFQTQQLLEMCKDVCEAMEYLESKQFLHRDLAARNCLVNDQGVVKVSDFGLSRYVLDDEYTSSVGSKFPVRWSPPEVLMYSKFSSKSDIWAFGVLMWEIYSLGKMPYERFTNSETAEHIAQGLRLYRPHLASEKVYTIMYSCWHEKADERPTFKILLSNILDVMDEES
UniProt Q6ZSJ8: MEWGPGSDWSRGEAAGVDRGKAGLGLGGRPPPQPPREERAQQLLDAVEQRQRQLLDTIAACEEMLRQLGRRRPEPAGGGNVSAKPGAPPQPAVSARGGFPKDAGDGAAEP
UniProt Q9NX04: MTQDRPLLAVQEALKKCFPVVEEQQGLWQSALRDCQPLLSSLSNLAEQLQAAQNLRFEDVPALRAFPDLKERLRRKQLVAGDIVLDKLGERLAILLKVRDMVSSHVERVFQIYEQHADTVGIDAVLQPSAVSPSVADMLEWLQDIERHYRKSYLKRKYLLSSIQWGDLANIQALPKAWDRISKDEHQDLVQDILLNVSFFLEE
UniProt Q5JPI3: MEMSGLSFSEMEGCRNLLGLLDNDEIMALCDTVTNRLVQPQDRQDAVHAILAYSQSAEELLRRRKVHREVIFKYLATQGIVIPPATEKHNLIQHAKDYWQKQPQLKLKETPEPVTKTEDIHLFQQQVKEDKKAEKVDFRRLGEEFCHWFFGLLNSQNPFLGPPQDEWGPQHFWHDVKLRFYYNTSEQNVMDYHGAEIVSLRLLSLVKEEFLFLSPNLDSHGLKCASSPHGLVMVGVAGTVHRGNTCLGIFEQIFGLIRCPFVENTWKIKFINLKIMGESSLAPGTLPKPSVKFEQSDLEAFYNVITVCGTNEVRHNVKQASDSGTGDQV
UniProt Q9BSJ5: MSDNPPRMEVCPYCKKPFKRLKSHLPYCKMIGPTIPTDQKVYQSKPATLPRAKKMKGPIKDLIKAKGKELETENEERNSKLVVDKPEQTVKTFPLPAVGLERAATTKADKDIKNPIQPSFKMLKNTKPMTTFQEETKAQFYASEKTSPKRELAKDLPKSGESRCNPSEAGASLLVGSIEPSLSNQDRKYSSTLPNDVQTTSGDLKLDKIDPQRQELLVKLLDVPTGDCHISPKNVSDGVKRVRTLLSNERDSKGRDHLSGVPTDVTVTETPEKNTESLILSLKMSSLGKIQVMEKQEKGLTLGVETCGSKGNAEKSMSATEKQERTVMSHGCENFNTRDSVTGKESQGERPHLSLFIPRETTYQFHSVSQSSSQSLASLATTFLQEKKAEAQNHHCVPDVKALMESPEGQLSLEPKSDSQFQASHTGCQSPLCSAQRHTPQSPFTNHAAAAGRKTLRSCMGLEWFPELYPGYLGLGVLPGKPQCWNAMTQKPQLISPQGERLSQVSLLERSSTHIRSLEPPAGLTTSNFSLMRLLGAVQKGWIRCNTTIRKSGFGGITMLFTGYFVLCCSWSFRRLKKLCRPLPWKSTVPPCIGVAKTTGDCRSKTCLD
UniProt Q96MD7: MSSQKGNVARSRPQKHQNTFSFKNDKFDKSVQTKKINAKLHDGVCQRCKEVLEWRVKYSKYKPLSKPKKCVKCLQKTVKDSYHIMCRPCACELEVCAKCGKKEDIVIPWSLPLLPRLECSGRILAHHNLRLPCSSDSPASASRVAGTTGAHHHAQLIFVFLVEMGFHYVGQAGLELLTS
UniProt Q8N1Q1: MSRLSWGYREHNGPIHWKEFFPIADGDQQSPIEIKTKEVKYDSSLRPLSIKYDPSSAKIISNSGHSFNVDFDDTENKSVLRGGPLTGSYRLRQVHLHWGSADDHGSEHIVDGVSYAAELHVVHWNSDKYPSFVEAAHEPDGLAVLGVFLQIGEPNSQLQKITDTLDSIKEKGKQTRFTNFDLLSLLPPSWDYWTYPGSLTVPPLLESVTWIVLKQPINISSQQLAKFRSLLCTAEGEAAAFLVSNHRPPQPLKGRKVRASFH
UniProt Q9HB71, whole entry, looked up: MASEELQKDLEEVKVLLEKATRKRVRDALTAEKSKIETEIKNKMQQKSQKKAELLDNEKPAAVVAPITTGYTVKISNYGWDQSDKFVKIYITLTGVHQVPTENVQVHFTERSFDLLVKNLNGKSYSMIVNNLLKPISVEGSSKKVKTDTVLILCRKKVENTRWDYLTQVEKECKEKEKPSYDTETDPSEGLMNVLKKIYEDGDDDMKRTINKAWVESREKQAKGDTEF
UniProt Q9Y426: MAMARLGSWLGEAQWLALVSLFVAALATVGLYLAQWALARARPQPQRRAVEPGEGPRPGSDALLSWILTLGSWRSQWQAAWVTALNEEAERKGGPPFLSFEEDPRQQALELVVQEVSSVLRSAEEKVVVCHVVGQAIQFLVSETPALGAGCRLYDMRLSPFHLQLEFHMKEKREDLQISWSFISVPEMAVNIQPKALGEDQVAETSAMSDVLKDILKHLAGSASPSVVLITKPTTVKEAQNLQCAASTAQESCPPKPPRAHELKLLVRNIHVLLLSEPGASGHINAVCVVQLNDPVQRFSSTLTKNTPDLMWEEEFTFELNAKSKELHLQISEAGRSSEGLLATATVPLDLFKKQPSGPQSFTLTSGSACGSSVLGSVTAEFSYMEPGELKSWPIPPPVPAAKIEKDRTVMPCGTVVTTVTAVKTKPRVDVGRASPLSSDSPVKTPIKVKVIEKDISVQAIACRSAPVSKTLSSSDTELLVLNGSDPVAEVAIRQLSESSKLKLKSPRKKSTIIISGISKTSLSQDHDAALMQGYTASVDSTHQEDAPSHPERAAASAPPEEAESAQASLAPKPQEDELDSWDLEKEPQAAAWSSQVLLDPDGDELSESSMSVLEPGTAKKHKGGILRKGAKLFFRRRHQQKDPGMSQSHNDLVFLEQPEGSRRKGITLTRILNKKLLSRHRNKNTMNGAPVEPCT
UniProt O95873: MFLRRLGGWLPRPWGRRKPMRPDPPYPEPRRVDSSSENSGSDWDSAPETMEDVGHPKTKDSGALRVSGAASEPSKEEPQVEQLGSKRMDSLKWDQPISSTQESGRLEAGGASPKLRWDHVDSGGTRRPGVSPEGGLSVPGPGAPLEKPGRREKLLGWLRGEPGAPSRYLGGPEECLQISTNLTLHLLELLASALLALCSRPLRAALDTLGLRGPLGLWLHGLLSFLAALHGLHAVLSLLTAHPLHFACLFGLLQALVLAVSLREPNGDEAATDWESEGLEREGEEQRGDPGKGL
UniProt Q9H425: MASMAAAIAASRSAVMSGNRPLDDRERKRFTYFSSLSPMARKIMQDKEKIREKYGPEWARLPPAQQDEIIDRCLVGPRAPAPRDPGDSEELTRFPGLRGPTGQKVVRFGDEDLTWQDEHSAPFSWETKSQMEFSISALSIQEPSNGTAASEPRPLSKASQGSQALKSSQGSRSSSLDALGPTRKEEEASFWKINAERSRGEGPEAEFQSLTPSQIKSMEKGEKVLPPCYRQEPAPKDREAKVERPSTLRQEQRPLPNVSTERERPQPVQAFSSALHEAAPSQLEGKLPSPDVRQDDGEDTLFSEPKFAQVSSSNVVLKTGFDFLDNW

compound: CNC(=O)c1ccc(Nc2ncc(C(F)(F)F)c(NCc3nccnc3N(C)S(C)(=O)=O)n2)cc1 [defactinib]; assay: log2 fold change, soluble protein after heating vs DMSO (PISA); higher = thermal stabilisation; K562 cells, 10 uM, 30 min; active = over 0.2 and 3.5 SD of the protein, either way, in both replicates (recomputed)
In short: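 Soluble protein was defined as the supernatant after 21,000xg for 90 min. It came from K562 cells at 2×10^6 cells/mL given 10 μM compound for 30 min, heated in aliquots for 3 min across 48°C-58°C, pooled, and extracted in PBS with 0.5% NP-40 at 4°C, and was quantified by TMTpro 16plex LC-MS/MS with equalised channel sums. Thermal stability against control samples, from duplicates, is reported as log2 fold change.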

| Target | log2 fold change |
| --- | --- |
| C1GALT1 (UniProt Q9NS00) | inactive: -0.052 |
| BUD13 (UniProt Q9BRD0) | inactive: -0.021 |
| BUD23 isoform 3 (UniProt O43709) | inactive: 0.066 |
| C1orf131 isoform 5 (UniProt Q8NDD1) | inactive: 0.174 |
| BTF3 (UniProt P20290) | inactive: 0.021 |
| C12orf29 (UniProt Q8N999) | inactive: -0.007 |
| C11orf98 (UniProt E9PRG8) | inactive: 0.315 |
| CALR (UniProt P27797) | inactive: 0.042 |
| BUB1 (UniProt O43683) | inactive: 0.01 |
| CAB39 (UniProt Q9Y376) | inactive: -0.001 |
| C2orf49 (UniProt Q9BVC5) | inactive: 0.114 |
| CALU isoform 3 (UniProt O43852) | inactive: 0.009 |
| C9orf40 (UniProt Q8IXQ3) | inactive: -0.009 |
| C5orf51 (UniProt A6NDU8) | inactive: -0.072 |
| CAPZA2 (UniProt P47755) | inactive: -0.055 |
| CALM2 (UniProt P0DP24) | inactive: 0.024 |
| C6orf89 isoform 2 (UniProt Q6UWU4) | inactive: -0.035 |
| CARHSP1 (UniProt Q9Y2V2) | inactive: 0.022 |
| C5orf22 (UniProt Q49AR2) | inactive: 0.014 |
| BTK isoform 2 (UniProt Q06187) | inactive: 0.142 |

| Target | log2 fold change |
| --- | --- |
| C1orf122 (UniProt Q6ZSJ8) | inactive: -0.05 |
| C11orf54 (UniProt Q9H0W9) | inactive: 0.047 |
| C1orf109 (UniProt Q9NX04) | inactive: 0.086 |
| C3orf38 (UniProt Q5JPI3) | inactive: -0.208 |
| C17orf80 (UniProt Q9BSJ5) | inactive: 0.006 |
| C8orf33 isoform 2 (UniProt Q9H7E9) | inactive: 0.488 |
| C9orf85 isoform 1 (UniProt Q96MD7) | inactive: -0.022 |
| C2CD5 isoform 4 (UniProt Q86YS7) | inactive: 0.026 |
| C3 (UniProt P01024) | inactive: -0.084 |
| C2CD2L (UniProt O14523) | inactive: -0.018 |
| CA13 (UniProt Q8N1Q1) | inactive: -0.05 |
| C19orf25 (UniProt Q9UFG5) | inactive: -0.225 |
| CACYBP (UniProt Q9HB71) | inactive: -0.008 |
| C2CD2 (UniProt Q9Y426) | inactive: -0.031 |
| C15orf40 (UniProt Q8WUR7) | inactive: 0.036 |
| BSG (UniProt P35613) | inactive: -0.029 |
| BTF3L4 (UniProt Q96K17) | inactive: -0.038 |
| C6orf47 (UniProt O95873) | inactive: 0.074 |
| C1orf198 (UniProt Q9H425) | inactive: -0.082 |

Taken from above.
Value for BTF3L4 (UniProt Q96K17) under log2 fold change: inactive: -0.038
Value for C11orf54 (UniProt Q9H0W9) under log2 fold change: inactive: 0.047
